The source of these data is paper PMC8956270.

The chains behind the UniProt entries cited, without tags or fusion partners.
UniProt P09429: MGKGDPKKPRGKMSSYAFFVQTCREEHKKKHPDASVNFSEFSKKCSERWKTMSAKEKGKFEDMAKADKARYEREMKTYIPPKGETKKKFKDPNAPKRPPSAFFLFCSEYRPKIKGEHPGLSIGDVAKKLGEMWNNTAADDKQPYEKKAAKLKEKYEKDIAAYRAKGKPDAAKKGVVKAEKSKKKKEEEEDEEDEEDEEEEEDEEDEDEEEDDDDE

These are yes or no findings as the source states them, for the method shown. In cells and extracts the contact can be indirect. Tags and fused reporters may be left off the sequences shown.

This test addresses T1, HA-hLXR (human HA-LXRα) (human) (UniProt Q13133).
T1 sequence: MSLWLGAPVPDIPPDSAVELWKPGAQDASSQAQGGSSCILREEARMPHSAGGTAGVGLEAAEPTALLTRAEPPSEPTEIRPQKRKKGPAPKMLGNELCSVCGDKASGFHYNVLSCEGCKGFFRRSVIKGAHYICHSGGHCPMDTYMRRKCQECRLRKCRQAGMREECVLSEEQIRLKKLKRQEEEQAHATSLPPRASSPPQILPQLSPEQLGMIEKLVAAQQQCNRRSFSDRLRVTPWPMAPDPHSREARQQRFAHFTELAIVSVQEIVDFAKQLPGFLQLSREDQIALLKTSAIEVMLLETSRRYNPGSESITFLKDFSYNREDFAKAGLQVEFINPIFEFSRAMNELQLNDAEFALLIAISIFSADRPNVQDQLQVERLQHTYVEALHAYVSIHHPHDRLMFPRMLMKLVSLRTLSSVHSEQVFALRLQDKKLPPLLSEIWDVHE
Briefly: co-IP; Ad293 cells transfected with HA-hLXR and/or HMGB1 plasmids, treated with DMSO (vehicle) or T0901317; lysed in IP buffer (20 mM tris-HCl pH 8, 100 mM NaCl, 0.1% NP-40, 10% glycerol, 1 mM DTT); IP with HA-conjugated beads for 2 hours at 4°C; Western blot.

Take Myc-HMGB1 (from UniProt P09429 1-215): the binding entry is reported as “no binding”.
